The values below come from PMC8664922.

Sequences of proteins named here, by UniProt entry; tags and fusion partners are left off.
UniProt Q8C3P7: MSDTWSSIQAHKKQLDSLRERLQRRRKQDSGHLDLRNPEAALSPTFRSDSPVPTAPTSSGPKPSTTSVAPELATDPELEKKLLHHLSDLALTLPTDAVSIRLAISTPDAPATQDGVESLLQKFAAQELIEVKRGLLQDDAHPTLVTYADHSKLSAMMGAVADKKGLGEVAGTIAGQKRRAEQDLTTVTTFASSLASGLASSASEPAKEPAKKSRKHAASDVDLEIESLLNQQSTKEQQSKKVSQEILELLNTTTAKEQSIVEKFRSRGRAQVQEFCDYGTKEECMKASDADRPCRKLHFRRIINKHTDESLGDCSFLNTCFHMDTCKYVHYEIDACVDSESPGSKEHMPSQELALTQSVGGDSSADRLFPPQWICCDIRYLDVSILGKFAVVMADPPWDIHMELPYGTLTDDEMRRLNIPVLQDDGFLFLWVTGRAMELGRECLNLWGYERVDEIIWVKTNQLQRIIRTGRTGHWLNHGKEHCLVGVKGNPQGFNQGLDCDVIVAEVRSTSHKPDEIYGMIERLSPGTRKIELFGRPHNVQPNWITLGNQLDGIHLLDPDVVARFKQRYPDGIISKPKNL
UniProt P70288: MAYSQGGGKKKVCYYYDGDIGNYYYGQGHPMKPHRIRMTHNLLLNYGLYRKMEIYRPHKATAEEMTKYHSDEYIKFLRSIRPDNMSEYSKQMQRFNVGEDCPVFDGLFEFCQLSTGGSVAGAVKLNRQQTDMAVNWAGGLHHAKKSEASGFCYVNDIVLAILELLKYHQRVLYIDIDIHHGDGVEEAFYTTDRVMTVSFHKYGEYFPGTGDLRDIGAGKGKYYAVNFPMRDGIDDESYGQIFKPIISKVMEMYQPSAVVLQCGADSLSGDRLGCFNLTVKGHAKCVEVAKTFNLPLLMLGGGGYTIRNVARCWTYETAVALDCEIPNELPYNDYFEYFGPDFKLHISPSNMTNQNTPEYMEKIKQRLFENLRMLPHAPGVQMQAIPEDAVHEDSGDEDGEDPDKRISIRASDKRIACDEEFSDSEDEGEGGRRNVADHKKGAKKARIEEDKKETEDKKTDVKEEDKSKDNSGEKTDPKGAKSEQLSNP
UniProt P50750: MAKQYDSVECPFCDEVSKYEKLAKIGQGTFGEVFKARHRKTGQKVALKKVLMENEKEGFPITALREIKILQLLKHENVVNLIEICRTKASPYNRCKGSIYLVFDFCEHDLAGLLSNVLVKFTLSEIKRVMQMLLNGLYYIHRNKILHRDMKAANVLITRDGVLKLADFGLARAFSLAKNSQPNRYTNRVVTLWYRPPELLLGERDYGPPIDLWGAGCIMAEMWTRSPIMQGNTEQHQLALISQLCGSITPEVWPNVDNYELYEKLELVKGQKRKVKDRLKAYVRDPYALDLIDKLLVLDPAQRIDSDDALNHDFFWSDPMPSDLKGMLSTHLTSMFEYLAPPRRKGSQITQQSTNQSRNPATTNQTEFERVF
UniProt Q13547: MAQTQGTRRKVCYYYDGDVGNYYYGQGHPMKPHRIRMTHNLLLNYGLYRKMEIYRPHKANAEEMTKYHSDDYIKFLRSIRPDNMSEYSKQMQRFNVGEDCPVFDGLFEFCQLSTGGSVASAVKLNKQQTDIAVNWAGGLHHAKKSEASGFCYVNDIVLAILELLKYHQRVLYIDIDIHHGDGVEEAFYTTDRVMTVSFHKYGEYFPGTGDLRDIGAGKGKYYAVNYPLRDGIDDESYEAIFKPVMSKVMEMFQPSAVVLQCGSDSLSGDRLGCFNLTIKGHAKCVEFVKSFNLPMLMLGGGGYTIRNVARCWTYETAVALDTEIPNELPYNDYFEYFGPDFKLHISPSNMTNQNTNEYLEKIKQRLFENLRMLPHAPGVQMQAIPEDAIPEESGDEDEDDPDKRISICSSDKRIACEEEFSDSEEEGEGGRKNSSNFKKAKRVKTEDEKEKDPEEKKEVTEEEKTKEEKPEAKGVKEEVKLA
UniProt O09106: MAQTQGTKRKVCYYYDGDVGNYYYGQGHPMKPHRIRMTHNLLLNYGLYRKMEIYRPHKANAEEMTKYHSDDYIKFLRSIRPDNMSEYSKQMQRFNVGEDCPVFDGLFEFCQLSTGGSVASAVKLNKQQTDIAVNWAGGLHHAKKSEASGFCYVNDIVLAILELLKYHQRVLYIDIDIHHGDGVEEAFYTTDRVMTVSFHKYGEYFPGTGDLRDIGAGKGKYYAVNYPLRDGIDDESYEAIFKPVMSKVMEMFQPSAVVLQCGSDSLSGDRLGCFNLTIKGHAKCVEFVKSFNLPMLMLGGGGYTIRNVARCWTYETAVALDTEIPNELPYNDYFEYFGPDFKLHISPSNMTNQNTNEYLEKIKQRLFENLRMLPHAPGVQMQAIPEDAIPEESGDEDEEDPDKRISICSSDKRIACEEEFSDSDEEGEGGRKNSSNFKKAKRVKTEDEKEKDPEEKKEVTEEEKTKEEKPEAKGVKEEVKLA
UniProt Q92769: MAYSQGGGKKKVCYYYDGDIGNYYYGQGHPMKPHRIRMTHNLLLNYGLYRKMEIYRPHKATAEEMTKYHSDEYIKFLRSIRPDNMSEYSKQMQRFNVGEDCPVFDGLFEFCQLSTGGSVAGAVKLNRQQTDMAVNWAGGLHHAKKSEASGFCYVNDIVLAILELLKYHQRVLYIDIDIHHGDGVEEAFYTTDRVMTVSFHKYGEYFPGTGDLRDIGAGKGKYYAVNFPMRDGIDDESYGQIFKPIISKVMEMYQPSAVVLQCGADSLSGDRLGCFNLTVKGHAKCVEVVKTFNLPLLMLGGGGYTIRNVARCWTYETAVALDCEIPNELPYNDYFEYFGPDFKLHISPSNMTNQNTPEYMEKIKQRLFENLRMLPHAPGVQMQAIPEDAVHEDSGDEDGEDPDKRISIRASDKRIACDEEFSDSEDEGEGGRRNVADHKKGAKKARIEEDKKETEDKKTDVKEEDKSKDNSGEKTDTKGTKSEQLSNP

Results are given in words; binding and its absence hold for the method and conditions named. Binding seen in cells or lysates may run through a third protein. Some entries that bind do so weakly or less than the wild type.

Experiment [1] deals with Flag-METTL3 expressed in the livers of Mettl3-HOE mice (UniProt Q8C3P7). The experiment is described as follows: co-IP; liver extracts of control and Mettl3-HOE mice (8 weeks old; also Mettl3-HOE mice fed NC or MCD for 2 weeks); first incubated with DNase1 (200 U/ml) at 37 °C for 30 min; immunoprecipitated with Flag beads, immunoblotted with anti-HDAC1 or anti-HDAC2; interactions decreased in MCD-fed mice. (In western blotting, separated proteins are transferred to a membrane and probed.)

The target of experiment [2] is Flag-METTL3 (methyltransferase like 3), expressed in HEK293T cells (UniProt Q8C3P7). Briefly: co-IP; Myc-CDK9 vector co-transfected with or without Flag-METTL3 vector in HEK293T cells; total cell lysates immunoprecipitated with Flag beads at 4 °C for 2 h, immunoblotted with anti-Myc or anti-Flag.
Experiment [3] has the same target. The experiment is described as follows: co-IP; HA-HDAC1 or HA-HDAC2 vector co-transfected with or without Flag-METTL3 vector in HEK293T cells; lysates first incubated with DNase1 (200 U/ml) at 37 °C for 30 min; immunoprecipitated with Flag or HA beads at 4 °C for 2 h, immunoblotted with anti-HA or anti-Flag.

Consider “HDAC2, endogenous in mouse liver (from UniProt P70288 1-488) (enzyme)”, for which the binding entry in experiment [1] is given as “binds”.

For the substance “Myc-CDK9 (from UniProt P50750 1-372) (enzyme)”, the binding result in experiment [2] is recorded as “binds”. On to “HA-HDAC1 (from UniProt Q13547 1-482) (enzyme)”, for which the binding result in experiment [3] was “binds”. Consider “HDAC1, endogenous in mouse liver (from UniProt O09106 1-482) (enzyme)”, for which the binding result in experiment [1] was “binds”. With “HA-HDAC2 (from UniProt Q92769 1-488) (enzyme)”, the binding result in experiment [3] is given as “binds”.
